Measurements: PubChem BioAssay AID1347421 (Sanford-Burnham Center for Chemical Genomics, 2020)
Over roughly 1,500 compounds, “activity” has its median near 2; the lowest 2% begin near -18. Some of the results follow. Active and inactive are the calls of the source.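 The calls were made as follows: active = inhibition of at least 40% at 10 µM; inconclusive = no clear call, values can overlap the other calls; inactive = the rest.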

Chains of the proteins cited; added tags and fusions are not shown. Lines headed by an entry give the natural chain unless they say otherwise; changes in a name come on top.
UniProt O00391: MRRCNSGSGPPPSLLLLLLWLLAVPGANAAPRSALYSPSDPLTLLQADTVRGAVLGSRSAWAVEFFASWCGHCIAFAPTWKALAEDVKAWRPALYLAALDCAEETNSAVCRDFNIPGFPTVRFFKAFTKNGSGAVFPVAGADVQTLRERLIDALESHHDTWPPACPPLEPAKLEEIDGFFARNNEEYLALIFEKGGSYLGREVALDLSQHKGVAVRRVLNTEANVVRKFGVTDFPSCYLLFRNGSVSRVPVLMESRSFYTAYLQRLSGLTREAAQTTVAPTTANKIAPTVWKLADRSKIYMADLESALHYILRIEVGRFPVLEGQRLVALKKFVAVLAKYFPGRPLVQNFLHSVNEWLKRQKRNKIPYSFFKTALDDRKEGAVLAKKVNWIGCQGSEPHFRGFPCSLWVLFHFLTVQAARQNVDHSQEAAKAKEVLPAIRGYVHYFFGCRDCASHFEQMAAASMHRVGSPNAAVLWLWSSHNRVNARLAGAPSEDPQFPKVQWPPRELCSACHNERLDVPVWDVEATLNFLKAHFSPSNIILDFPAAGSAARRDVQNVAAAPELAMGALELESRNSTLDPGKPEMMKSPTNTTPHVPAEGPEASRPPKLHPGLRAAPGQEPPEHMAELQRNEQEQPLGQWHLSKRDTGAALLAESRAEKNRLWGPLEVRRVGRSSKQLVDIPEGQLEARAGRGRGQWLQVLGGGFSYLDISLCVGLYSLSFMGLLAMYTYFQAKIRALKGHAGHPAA

What follows are compounds tested against Sulfhydryl oxidase 1 (Homo sapiens) (UniProt O00391) (assay: QSOX1 enzyme inhibitors, confirmation, biochemical, ROS-Glo luminescence, single concentration (AID 1347421;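 also: 0% = DMSO wells with enzyme and 100% = wells lacking QSOX1 enzyme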)). Settings: recombinant hQSOX1, RNase A substrate, ROS-Glo H2O2 luminescence; at 10 µM.
With `CS(=O)(=O)N(CC(=O)N1CCCC1)Cc1ccc(F)cc1` the activity was inactive: -19.7%.
`O=C(c1cn2cccnc2n1)N1CCOC(CCCc2ccccc2)C1` (centres undefined) gave an activity of 2.1%.
For `Cc1cc(C(=O)N2CCC(CCC(=O)NCC3CCCO3)CC2)nc(C)n1` (centres undefined), the activity was 18.8%.
Compound `CSc1ccccc1C(=O)C1CCCN(S(=O)(=O)c2c(C)nn(C)c2C)C1` (centres undefined) has an activity of 10.2%.
`COc1cccc(CNCc2ccc(F)cc2)c1` was tested, and the activity was inactive: -17.7%.
`C=CCCC(=O)NC1CC(=O)N(Cc2cccc3ccccc23)C1` (centres undefined) showed an activity of 1%.
`Cc1ccccc1CCC1CCCN(C(=O)c2ccc(CN(C)C)o2)C1` (centres undefined) was tested, and the activity was 6.7%.
With `CCOC(=O)c1ccc2c(N)c(-c3cccnc3)sc2n1` the activity was 0.7%.
`CCC(c1ccc(OC)cc1)N(CC)C(=O)Nc1ccccc1` (centres undefined) showed an activity of 2.6%.
In the case of `COc1ccc(F)cc1S(=O)(=O)NC(C)C`, the activity is reported as inactive: -2%.
`Fc1cccc(-c2cnnc(NCC(c3ccccn3)N3CCOCC3)n2)c1` (centres undefined) gave an activity of 6.3%.
`O=C(NC1CCCN(CCc2ccccc2)C1)c1cc2ccccc2oc1=O` (centres undefined) showed an activity of 2.2%.
`CN1CCC(N(C)C(=O)CCC2CCCN(C(=O)CN3CCCCC3=O)C2)CC1` (centres undefined) gave an activity of 1.7%.
`COc1ccc(CNCCc2cscn2)cc1OCC(O)CN1CCCC1` (centres undefined) was tested, and the activity was inactive: -0.1%.
`COCCC(=O)N1CCC(Oc2ccc(C(=O)N(C)Cc3cc(C)no3)cc2)CC1` showed an activity of 2.6%.
With `Cc1cccn2cc(Cn3ccc(-c4cccc(-c5cncnc5)c4)n3)nc12` the activity was 7.2%.
In the case of `C=CCNC(=O)C1CCN(S(=O)(=O)c2ccc3ccccc3c2)CC1`, the activity is reported as inactive: -2.2%.
`Cc1nnc(SCC(=O)N2CCOC(CCc3ccccc3)C2)o1` (centres undefined) showed an activity of 8.8%.
Compound `O=C(C1CCC(O)CC1)N1CCC(C2CCN(CCc3ccccc3)C2)CC1` (centres undefined) has an activity of 0.3%.
With `Cc1c(CN2CCCC(N3CCC(CO)CC3)C2)c(=O)n(-c2ccccc2)n1C` (centres undefined) the activity was 2.4%.
With `COc1ccc(CNCCCn2cccn2)cc1OCC(O)CN(C)C(C)C` (centres undefined) the activity was 2.5%.
Compound `Cc1cccc(-c2noc(CN3CCN(c4ccc(F)cc4)CC3)n2)c1` has an activity of 8.5%.
`COc1cc(-c2[nH]ncc2CN(C)Cc2ccccc2C(F)(F)F)cc(OC)c1OC` was tested, and the activity was 6%.
With `COc1ccc(CN2CCNC(=O)C2CC(=O)NCCc2cscn2)cc1OC` (centres undefined) the activity was inactive: -0.8%.
`COc1cccc(NC(=O)CCC2CCN(C(=O)c3cnsn3)CC2)c1` was tested, and the activity was 2.1%.
`CCN(Cc1ccncc1)Cc1ccc(OCC(O)CN2CCSCC2)c(OC)c1` (centres undefined) was tested, and the activity was inactive: -1.3%.
With `COc1cccc(CCC2CCCN(C(=O)CSc3ccncc3)C2)c1` (centres undefined) the activity was inactive: -3.7%.
Work on `CCOC(=O)C1(Cc2cccc(OC)c2)CCCN(C(=O)c2ccncc2)C1` (centres undefined) yielded an activity of 3.2%.
With `CCCN1CCN(CC2(O)CCCN(Cc3cccc(C)c3)C2=O)CC1` (centres undefined) the activity was inactive: -5.4%.
`FC(F)(F)c1ccc(-c2noc(CN3CCCCCCC3)n2)cc1` was tested, and the activity was 3.5%.
`COCCn1c(CN(C)Cc2cccnc2)cnc1S(=O)(=O)CC(C)(C)C` showed an activity of 7.7%.
With `COc1cc(CNCC(C)(C)OC)ccc1OCC(O)CN(C)C(C)C` (centres undefined) the activity was 7.6%.
In the case of `CC(C)(C)C1(c2ccccc2)NC(=O)N(CC(=O)N2CCCCC2)C1=O` (centres undefined), the activity is reported as inactive: -23.9%.
`O=C(NC1CC1)c1cccc(-n2cnnc2)c1` gave an activity of 2.2%.
With `CCCN(CC1CC1)C(=O)C1CCN(C2CCN(Cc3cccc(C)n3)CC2)CC1` the activity was inactive: -0.4%.
With `COc1cccc(CNC(=O)CCC2CCCN(c3ncccn3)C2)c1` (centres undefined) the activity was 1.6%.
`COc1ccc(CN2CCN(Cc3ccsc3)CC2CCO)c(F)c1` (centres undefined) was tested, and the activity was 7.8%.
`Cc1nc2nc(NC(=O)c3cccnc3)nn2c(C)c1Cl` showed an activity of 4.5%.
In the case of `Cc1nc(CC(=O)N2CCCC(CCC(=O)N(C)CCc3ccccn3)C2)cs1` (centres undefined), the activity is reported as inactive: -8%.
In the case of `CC(c1ccon1)N(C)Cc1cnc(S(C)(=O)=O)n1Cc1ccccc1F` (centres undefined), the activity is reported as inactive: -1.3%.
`Cc1ccc(-c2cn(S(=O)(=O)c3cccc4nsnc34)nc2N)cc1` was tested, and the activity was 3.4%.
With `CSc1ncc(Cl)c(C(=O)Nc2cccc(C)c2C)n1` the activity was inactive: -16%.
For `CN(CCc1cnn(C)c1)C(=O)c1cn(Cc2ccc(F)cc2)nn1`, the activity was 13.8%.
`O=CN1CCCN(C(=O)c2csc3nc(-c4ccccc4F)cn23)CC1` was tested, and the activity was 5.5%.
`COc1ccc(-c2noc(CN3CCCC(C(=O)c4cccs4)C3)n2)c(OC)c1OC` (centres undefined) was tested, and the activity was 3.2%.
In the case of `COc1ccc(CNC(=O)CCC2CCCN(Cc3cccnc3)C2)c(OC)c1` (centres undefined), the activity is reported as 2.8%.
With `O=C(Cc1cccs1)NC1CC(=O)N(Cc2ccccc2C(F)(F)F)C1` (centres undefined) the activity was 0.2%.
With `O=C(NCCCN1CCOCC1)c1ccc2nc(Cc3ccccc3F)oc2c1` the activity was inactive: -2.9%.
For `CN(C)CCC1CN(Cc2cnc(-c3ccccc3)s2)CCO1` (centres undefined), the activity was inactive: -0.6%.
In the case of `Cc1ncsc1CCC(=O)NC1CCCN(C2CCN(C)CC2)C1` (centres undefined), the activity is reported as inactive: -2.3%.
For `COc1ccc(CN2CCC(O)CC2)cc1OCC(O)CN(C)Cc1ccccc1` (centres undefined), the activity was 4.6%.
For `Cc1oc(-c2ccco2)nc1CN(C)CC1COc2ccccc2O1` (centres undefined), the activity was 4.7%.
With `CN1CCC(N2CCCC(NC(=O)/C=C/c3c(F)cccc3F)C2)CC1` (centres undefined) the activity was 3.8%.
In the case of `Fc1ccc(C2(c3noc(C4=CCCCC4)n3)CCOC2)cc1` (centres undefined), the activity is reported as 7.5%.
